Assay results taken from article PMC9596432.

Molecular target: FimL-3xFLAG (Acinetobacter baylyi ADP1)
Experiment: affinity purification with mass spectrometry; FimL-3xFLAG captured from A. baylyi lysate on α-FLAG magnetic beads (Buffer 2: 50 mM Tris-Cl pH 7.4, 150 mM NaCl, 1 mM EDTA, 10 mM MgCl2, 0.1% Triton X-100, 2% glycerol; 4 °C, 2 h), eluted with 3X-FLAG peptide, in-gel trypsin digestion, LC-MS/MS

binding: binds
B1: FimV homologue encoded by gene ACIAD0477 (protein, UniProt Q6FEV0 1-384)
chain: MLYVIPFIILLVVAIIFIIRQRRQNASSSSHAKNNKNNEIKTSENDLSAAKTPVTIDPNIHERIDHLIDIGHLSAAEALINQTLNRDPSRHDLYLYLLDLHLRQNDELGIKQLIQNLQQLQLHDVLNQIEGKYRNTHEQKEKYAKIIQQKQQNIQDITRTASPTATAAIKVETTHTNPAPVQKHIIEEHQSLEFNPKPIAPVNKSEKSNTVPHQDISFVLEMADQITVSPKKNEAAAEVKVENQTRKLAASPPQALNADQEASHLAQPKVVEPRIDTPPVHTPVPPPTLTRQDTPPITLKQHLPPVAESLQPQPAQITVDHDPLIQAFPELANLDETQLDLELAEQYIELGAYASAQILLNQNESKFSAQQLELSKKLLNRMAS

Results are given in words; binding and its absence hold for the method and conditions named. Binding seen in cells or lysates may run through a third protein. These calls come from enrichment with a bait or labelling near it, and not all partners need be listed.
